Results are given in words; binding and its absence hold for the method and conditions named.
Biological target: human Hsp90α (human) (UniProt P07900)
Assay: dynamic light scattering; 0.02mg/ml Hsp90 in a 1:1 molar ratio with bovine serum albumin, 60 minute time course; both purified

bovine serum albumin (from UniProt P02769 25-607)
binding: no binding (tested: 1:1 molar ratio, 0.02mg/ml)

Source: PMC3248148
